The text below walks through data of PubChem BioAssay AID1347423 (Functional Genomics Laboratory (NCATS/FGL), 2020).

Hit rate of the full screen: of about 52,000 sequences, about 210 (0.4%) were called active.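 Rule for the calls: active = gene whose silencing raises cell survival under the drug, median off-target-corrected z-score across its silencing RNAs 2 or more; inactive = the rest.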 The list shows a part of the results.

A short description of this assay: Resistance to Poly (ADP-Ribose) Polymerase inhibitor: Gene Identification via Genome-wide siRNA Screen. The conditions noted are these: mouse BRCA2 R2336H ES cells, olaparib, CellTiter-Glo viability; hits give high values. The method in brief:
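Genome-wide siRNA screen (3 siRNAs/gene, 20 nM) in mouse ES cells carrying hypomorphic BRCA2 R2336H; olaparib 500 nM added 48 h post-transfection, CellTiter-Glo viability 72 h later. Normalized to plate-median negative control; MAD z-scores, gene median, seed-adjusted.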
For GGGCACUGGAACAGAUUUUTT against Ccnh, the z-score is inactive: 1.35.

With GGAAUGGAGUCUCCAAAGUTT against Mgl2, the z-score is inactive: 1.36.

Regarding “GGUAGAGACGUGAAUGCUCTT against 4732495E13Rik”, the z-score was inactive: -0.143.

For the sequence CCUCAUUCGAUACAUCUGUTT against C77668, the z-score is inactive: 1.28.

Take GCCGUGGCCUAAUAAACGUTT against Nosip: the z-score was inactive: 0.351.

GGUCGAAUGAAAAUCGCCATT against Arhgap18: the z-score is inactive: 0.212.

“GGAAACAGGGCUACGACAGTT against C130036J11”: the z-score is inactive: 0.599.

As to “GGGCCCAGGCUAAAAUAAATT against C230069K22Rik”, the z-score is inactive: -0.586.

In the case of “GCCAGAUGCUUACUAAGUGTT against 2610033H07Rik”, the z-score is inactive: -0.831.

Regarding GGUGAUGACAAAGUACAAUTT against Stx3, the z-score was inactive: 0.398.

Regarding GCAAGAGUACAUCAAUGAUTT against Wdr75, the z-score was inactive: -2.3.

For the sequence GCAAGGAUCCACGCUUUUCTT against Ckmt2, the z-score is inactive: -1.57.

Regarding “GGUUAUUAAGACCCAGGUCTT against 1700055O19Rik”, the z-score is inactive: 0.435.

Turning to “CCAUCAAAGAAACAGAUUGTT against 1110018M03Rik”, the z-score was inactive: -0.964.

As for CGAGGAUUUCUGUUACUUATT against Lyst, the z-score is inactive: -0.313.

Take GGAACGUGAUGAAGUGGUCTT against Gm720: the z-score is inactive: 1.3.

As for GGUAGACUGGUCAGAUACATT against Gm111, the z-score is inactive: 1.05.

For the sequence GGUUCAUCAUUUGGAAACATT against Msh4, the z-score was inactive: -1.61.

Regarding GGUGAUUUUAUGACAGGAATT against Cbx6, the z-score was inactive: 0.366.

On to CGUGUUUCACAAGAGCAUATT against Svs2, for which the z-score is inactive: 0.158.

Turning to GGGAGUUUCAGACCAGUGUTT against Atp5g3, the z-score was inactive: -1.46.

GGUGAGAACGAGAUGGUGATT against Txnip: the z-score is inactive: -1.08.

For GGAAAAGGCCGAUUUCGUGTT against Dixdc1, the z-score was inactive: 0.0964.

With “GGAGCUUAAAGUGAGCGGCTT against 1110049G11Rik”, the z-score was inactive: -0.523.

Regarding GGAGGAUUCCAAAGUCCGATT against Sp5, the z-score was inactive: 1.37.

Take GGAAACGAGUUGGAGACAATT against Gtpbp1: the z-score was inactive: 0.416.

Take GCAGGAGAAAAGAAUCAAGTT against MGC118309: the z-score is inactive: 0.393.

Take GCCUGUCCACAUCACUGUATT against Gm905: the z-score is inactive: -0.457.

For the sequence “GGAAAACCUAAGGUUUAAUTT against 4933417C16Rik”, the z-score is inactive: -0.398.

On to GGUGUCGAGUAAGAAAGCUTT against BC046331, for which the z-score was inactive: -0.0444.

Regarding GGGAGUGCCUUUAAAACACTT against Satb1, the z-score is inactive: -1.22.

With “GGAACUCACUCGACAGAAGTT against 5730536A07Rik”, the z-score is inactive: -1.4.

Turning to GGUGUUAGCUACAGAGACCTT against Rab32, the z-score was inactive: 0.326.

With “GCAAGCACUGAACUUUGUCTT against 2900009I07Rik”, the z-score is inactive: 0.795.

On to GGACAUAGAUAAAUGCAGATT against D13Wsu50e, for which the z-score was inactive: 1.08.

As for GGGAACAGUAUCUGAUUCATT against Polg, the z-score is inactive: 0.25.

Turning to GGGAUUCAGAGUCAAGAUUTT against Thpo, the z-score is inactive: 0.898.

For the sequence CCCUACAGUACUAAUCAAATT against Ptgs2, the z-score was inactive: -1.05.

With GGCUUUCAGAGUUAACAAATT against Ptpn4, the z-score is inactive: -0.914.

Consider GCUCAGGAUCGCUAUUACATT against Il12b, for which the z-score was inactive: -1.37.

As to GGAGAUUUCAUGAACUCUGTT against AB041661, the z-score was inactive: 0.14.

Regarding “GCAGGACUUACAUGAGAAUTT against 1200015N20Rik”, the z-score is inactive: 0.329.

In the case of GGUCUUGGAGUUGCUAAUUTT against Vdrip, the z-score was inactive: -0.168.

Take GCCUUUUUGGAGAAUGAAUTT against Rhbdl: the z-score is inactive: -0.143.

For the sequence GGAGUGUUUGAGAAAUACCTT against BC027342, the z-score was inactive: -0.283.

As for “GGAUGCUGUUUACCUAUACTT against D630035O19Rik”, the z-score is inactive: 0.419.

On to “CCUCAGAAAAAGAGUGUGCTT against 4930563M21Rik”, for which the z-score was inactive: -0.534.

GGAGAGCUUUCUGAACUGUTT against AI415330: the z-score was inactive: -0.302.

On to GGAAAACAAGCCUGUAUUUTT against Mbd4, for which the z-score is inactive: -0.781.

As for GGCCAAAAUCUCAACAUAUTT against Glcci1, the z-score was inactive: -1.84.

Take UUGUUGCCAAGUAUCUGUCTT against Ugt1a13: the z-score is inactive: -0.843.

In the case of “CCAUAGCUCUGGAAUGGUGTT against C030030G16Rik”, the z-score was inactive: 1.2.

On to “GGGACAGUGUCCAGAAAAGTT against D130020L05Rik”, for which the z-score is inactive: -1.14.

For the sequence CCUUGGAGAGAGAAGACAUTT against Rpp38, the z-score is inactive: -0.7.

Turning to GCCUGUGAGAUCAUCUUUUTT against Pkd2, the z-score is inactive: 0.347.

For CCUUAGGAGUACUUAAAAATT against Isl1, the z-score was inactive: 0.948.

As for GGAGGUUCUGCCCAUAACUTT against Whrn, the z-score is inactive: 0.192.

As to GGUCUUGUGGUGGUACUACTT against Elovl2, the z-score was inactive: 1.82.

With GGCCAUGCUGAGUUAGAUATT against Slc10a3, the z-score is inactive: 1.12.

On to GGAUGCUAUGCCAAAAACUTT against Csrp1, for which the z-score is inactive: 1.26.

With CCUGGUCUAUAAGGUUUGUTT against Mscp, the z-score is inactive: -0.0958.

As for GGUGCUUAAACUUCACCCUTT against Polg2, the z-score was inactive: 1.68.

Turning to “GGGCCCAGUUGAUCAAAGATT against 1700031F13Rik”, the z-score was inactive: 0.00981.

As to GGACAGUUUCACGACAACGTT against Khsrp, the z-score was inactive: -2.65.

With “GGAAAGACCACCAAAUCCCTT against 2810410M20Rik”, the z-score was inactive: 1.07.

On to “CGAGGUGCUAAUCUGGCCUTT against 2410015N17Rik”, for which the z-score is inactive: -1.33.
